Test results published in patent US7276363B2, “Nucleic acid molecules encoding red and green emitting luciferases” (Toyo Boseki Kabushiki Kaisha, priority 1998, dated 2007).

Columns and labels:
[1] = In vitro bioluminescence spectra of luciferase extracts; assay type: biochemical; settings: for in vitro bioluminescence spectrum peak (λmax): 0.1 M Tris-HCl buffer, pH 8.0; for half bandwidth of bioluminescence spectrum: in vitro spectrum
[2] = tested on: E. coli SOLR cells carrying luciferase insert; assay: Bacterial in vivo bioluminescence spectra; assay type: cell-based, Echerichia coli; settings: bacterial suspension, D-luciferin in sodium citrate buffer pH 5.0

| Molecule | in vitro bioluminescence spectrum peak (λmax) [1] [nm] | half bandwidth of bioluminescence spectrum [1] [nm] | in vivo bioluminescence spectrum peak (λmax) [2] [nm] | blue shift of in vitro spectrum in relation to native enzyme from P. hirtus head lanterns ([1]; in part due to distinct equipment) [nm] | shift of spectrum peak in relation to PvGR luciferase ([1]; in vivo and in vitro spectra) [nm] |
| --- | --- | --- | --- | --- | --- |
| Phrixothrix vivianii green light-emitting luciferase PvGR, recombinant, wild type, SEQ ID NO: 2 (Phrixothrix vivianii) (protein) MEEENIRHGERPRDIVHPGSAGQQLYQSLYKFASFPEAIIDAHTNEVISYAQIFETSCRLAVSIEQYGLNENNVVGVCSENNINFFNPVLAALYLGIPVATSNDMYTDGELTGHLNISKPTIMFSSKKALPLILRVQQNLSFIKKVVVIDSMYDINGVECVSTFVARYTDHTFDPLSFTPKDFDPLEKIALIMSSSGTTGLPKGVVLSHRSLTIRFVHSRDPIYGTRTVPQTSILSLVPFHHAFGMFTTLSYFVVGLKVVMLKKFEGALFLKTIQNYKIPTIVVAPPVMVFLAKSPLVDQYDLSSLTEVATGGAPLGKDVAEAVAKRLKLPGIIQGYGLTETCCAVMITPHNAVKTGSTGRPLPYIKAKVLDNATGKALGPGERGEICFQSEMIMKGYYNNPEATIDTIDKDGWLHSGDIGYYDEDGNFFIVDRLKELIKYKGYQVAPAELENLLLQHPSIADAGVTGVPDEFGGQLPAACVVLESGKTLTEKEVQDFIAAQVTPTKHLRGGVVFVDSIPKGPTGKLIRKELREIFAQRAPKSKL | 549 | 70.5 | 549 | – | – |
| PhRE: recombinant red light-emitting luciferase of Phrixothrix hirtus head lanterns, 546 amino acid residues (protein, listed as Phrixothrix hirtus) MEEENVVNGDRPRDLVFPGTAGLQLYQSLYKYSYITDGIIDAHTNEVISYAQIFETSCRLAVSLEKYGLDHNNVVAICSENNIHFFGPLIAALYQGIPMATSNDMYTEREMIGHLNISKPCLMFCSKKSLPFILKVQKHLDFLKRVIVIDSMYDINGVECVFSFDSRNTDHAFDPVKFNPKEFDPLERTALIMTSSGTTGLPKGVVISHRSITIRFVHSSDPIYGTRIAPDTSILAIAPFHHAFGLFTALAYFPVGLKIVMVKKFEGEFFLKTIQNYKIASIVVPPPIMVYLAKSPLVDEYNCSSLTEIASGGSPLGRDIADKVAKRLKVHGILQGYGLTETCSALILSPNDRELKKGAIGTPMPYVQVKVIDINTGKALGPREKGEICFKSQMLMKGYHNNPQATRDALDKDGWLHTGDLGYYDEDRFIYVVDRLKELIKYKGYQVAPAELENLLLQHPNISDAGVIEFRTNLLVNYLSACVVLEPGKTMTEKEVQDYIAELVTTTKHLRGGVVFIDSIPKGPTGKLMRNELRAIFAREQAKSKL | 622 | 55 | 622 | 6 | 73 |
